Source: US20220135687A1
Results are given in words; binding and its absence hold for the method and conditions named. Some entries that bind do so weakly or less than the wild type.

The chains behind the UniProt entries cited, without tags or fusion partners. Where a name states a change or a piece, a line headed by the entry shows the natural chain unless it says otherwise.
UniProt Q9NZQ7: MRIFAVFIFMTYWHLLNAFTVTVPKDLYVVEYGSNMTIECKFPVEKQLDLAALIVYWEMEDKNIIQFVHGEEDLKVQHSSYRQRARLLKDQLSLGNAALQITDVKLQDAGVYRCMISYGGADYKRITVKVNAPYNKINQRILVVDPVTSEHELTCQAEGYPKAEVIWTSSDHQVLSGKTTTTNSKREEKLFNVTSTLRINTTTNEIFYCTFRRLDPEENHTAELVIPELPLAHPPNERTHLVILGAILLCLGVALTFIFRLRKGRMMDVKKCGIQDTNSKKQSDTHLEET

Columns and labels:
[1] = target: human PD-L1 expressed on CHO-K1 cells (Genscript, Cat #M00543) (human) (UniProt Q9NZQ7); experiment: FACS, CHO-K1/human PD-L1 cells
[2] = target: Human PD-L1 extracellular domain Fc fusion protein (PD-L1-Fc) (GenScript, Cat. No.: Z03371) (human) (UniProt Q9NZQ7); experiment: hybridoma screen: ELISA on PD-L1-Fc, PD-1 competition ELISA, FACS on CHO/PD-L1 cells
[3] = target: His-tagged PD-L1 ECD protein (ACROBiosystems) (human) (UniProt Q9NZQ7); experiment: SPR, supernatant IgG captured, PD-L1-His analyte
[4] = target: cynomolgus PD-L1 Fc-fusion protein (cynomolgus) (UniProt G7PSE7); experiment: SPR, cyno PD-L1-Fc immobilised, antibody analyte
[5] = target: cynomolgus PD-L1 overexpressing stable cell line (cynomolgus) (UniProt G7PSE7); experiment: FACS, cynomolgus PD-L1 cell line
[6] = target: His-tagged PD-L1 ECD protein (ACROBiosystems) (human) (UniProt Q9NZQ7); experiment: SPR, IgG captured by anti-human Fc, PD-L1-His analyte

B1: 42G2D7C3 (antibody, V domains shown)
VH: DVQLLESGPGLVKPSQSLSLTCSVTGYSITSGYYWNWIRQFPGNNLEWMGSINYDGSNDYNPSLQDRISITRDTSKNQFFLKLNSVTTEDTATYYCARRLDYWGQGTTLIVSS
VL: QIVLTQSPAIMSASPGEKVTISCSASSFINYMYWYQQKPGSSPKPWILRTSTLASGVPARFSGSGSGTSYSLTISSMEAEDAATYYCQQYHSYPLTFGAGTKLELK
Q: B1 was tested. Which binding [1] did it give?
A: The binding was “binds”.

Q: And the binding [2]?
A: The binding was “binds”.

B2: 29A8_VH2-VL1.M1 (antibody, human IgG1, kappa, N297A, V domains shown)
VH: EVQLQESGPGLVKPSETLSLTCTVSGYSITSDFAWDWIRQFPGKGLEWMGHIRFSGTTSYNPSLKSRITISVDTSKNQFSLKLSSVTAADTAVYYCARSTLITKGFFDYWGQGTLVTVSS
VL: DIQMTQSPSSLSASVGDRVTITCRASQDVSPAVAWYQQKPGKAPKLLIYWASTRHTGVPSRFSGSGSGTDFTLTISSLQPEDFATYYCQQHYSTPWTFGQGTKVEIKR
Q: Which binding [3] does the source give for B2 here?
A: The binding was “binds”.

B3: 29A8_VH3-VL1.M1 (antibody, human IgG1, kappa, N297A, V domains shown)
VH: EVQLQESGPGLVKPSETLSLTCTVSGYSITSDFAWDWIRQFPGKGLEWMGHIRFSGTTSYNPSLKSRITISVDTSKNQFFLKLSSVTAADTATYYCARSTLITKGFFDYWGQGTLLTVSS
VL: DIQMTQSPSSLSASVGDRVTITCRASQDVSPAVAWYQQKPGKAPKLLIYWASTRHTGVPSRFSGSGSGTDFTLTISSLQPEDFATYYCQQHYSTPWTFGQGTKVEIKR
Q: With B3 as the binder, how does the binding [3] read?
A: Its binding is “binds”.

B4: 29A8_VH5-VL1.M1 (antibody, human IgG1, kappa, N297A, V domains shown)
VH: EVQLQESGPGLVKPSETLSLTCTVSGYSITSDFAWDWIRQPPGKGLEWIGHIRFSGTTSYNPSLKSRVTISRDTSKNQFSLKLSSVTAADTAVYYCARSTLITKGFFDYWGQGTLVTVSS
VL: DIQMTQSPSSLSASVGDRVTITCRASQDVSPAVAWYQQKPGKAPKLLIYWASTRHTGVPSRFSGSGSGTDFTLTISSLQPEDFATYYCQQHYSTPWTFGQGTKVEIKR
Q: What does the source list for B4?
A: binding [1]: binds; binding [3]: binds; binding [4]: binds; binding [5]: binds; binding [6]: binds

B5: 53C1_VH2-VL1.M1 (antibody, human IgG1, kappa, N297A, V domains shown)
VH: EVQLVQSGAEVKKPGASVKVSCKASGYIFTGYGITWVRQAPGQGLEWIGEIFPRRVNTYYSEKFKGRATLTTDTSTSTAYMELRSLRSDDTAVYFCARDYDPYFALDYWGQGTTVTVSS
VL: DIQMTQSPSSLSASVGDRVTITCRASQDVSTAVDWYQQKPGKAPKLLIYSASYRYTGVPDRFSGSGSGTDFTFTISSLQPEDIATYYCQQHYSIPFTFGQGTKLEIKR
Q: How did the binding [3] turn out when B5 was run?
A: Its binding is “binds”.

B6: 53C1_VH3-VL1.M1 (antibody, human IgG1, kappa, N297A, V domains shown)
VH: EVQLVQSGAEVKKPGASVKLSCKASGYIFTGYGITWVRQAPGQGLEWIGEIFPRRVNTYYSEKFKGRATLTADTSTSTAYMELRSLRSDDTAVYFCARDYDPYFALDYWGQGTTVTVSS
VL: DIQMTQSPSSLSASVGDRVTITCRASQDVSTAVDWYQQKPGKAPKLLIYSASYRYTGVPDRFSGSGSGTDFTFTISSLQPEDIATYYCQQHYSIPFTFGQGTKLEIKR
Q: Which binding [1] does the source give for B6 here?
A: The binding was “binds”.

Q: And the binding [3]?
A: The binding was “binds”.

Q: And the binding [4]?
A: Its binding is “binds”.

Q: What about the binding [5] of the same binder?
A: The binding was “binds”.

Q: And the binding [6]?
A: Its binding is “binds”.

B7: 53C1_VH3.M3-VL1.M1 (antibody, human IgG1, kappa, N297A, V domains shown)
VH: EVQLVQSGAEVKKPGASVKLSCKASGYIFTGYGITWVRQAPGQGLEWIGEIFPRRVQTYYSEKFKGRATLTADTSTSTAYMELRSLRSDDTAVYFCARDYDPYFALDYWGQGTTVTVSS
VL: DIQMTQSPSSLSASVGDRVTITCRASQDVSTAVDWYQQKPGKAPKLLIYSASYRYTGVPDRFSGSGSGTDFTFTISSLQPEDIATYYCQQHYSIPFTFGQGTKLEIKR
Q: How did the binding [3] turn out when B7 was run?
A: The binding was “binds”.
